Source: PubChem BioAssay AID2066 (NMMLSC, 2009)
Out of some 320,000 compounds screened, about 50 (0.02%) were called active. The source calls these results inconclusive, neither active nor inactive.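 The calls were made as follows: active = GFP response relative to DMSO above a set limit, near screen average plus 3 SD (cut at about 150% in these data); inconclusive = fewer than 70 cells counted for the yeast strain; inactive = the rest.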 Some of these compounds have results that are not shown, active ones among them.

Experiment: yeast AGP1-GFP level changes, GLN3 branch – cell-based, multiplex flow cytometry, S. cerevisiae, MLPCN library, primary screen (AID 2066)
Settings: 3 h, at 10 µM

SMILES | outcome
Cc1cc(C(=O)NCC2(N3CCCCC3)CCCCC2)ccc1[N+](=O)[O-] | inconclusive
